From publication PMC9860496
No constants are given. Whether binding was seen depends on the method and setting. Some entries that bind do so weakly or less than the wild type.

Protein sequences, listed by entry. Tags and fused reporters are not part of them.
UniProt O00762: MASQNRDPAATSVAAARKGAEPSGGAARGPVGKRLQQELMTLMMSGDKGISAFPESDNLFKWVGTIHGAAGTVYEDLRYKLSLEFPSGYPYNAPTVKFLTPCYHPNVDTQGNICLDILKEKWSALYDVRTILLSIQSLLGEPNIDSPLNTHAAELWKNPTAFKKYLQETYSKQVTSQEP
UniProt Q712K3: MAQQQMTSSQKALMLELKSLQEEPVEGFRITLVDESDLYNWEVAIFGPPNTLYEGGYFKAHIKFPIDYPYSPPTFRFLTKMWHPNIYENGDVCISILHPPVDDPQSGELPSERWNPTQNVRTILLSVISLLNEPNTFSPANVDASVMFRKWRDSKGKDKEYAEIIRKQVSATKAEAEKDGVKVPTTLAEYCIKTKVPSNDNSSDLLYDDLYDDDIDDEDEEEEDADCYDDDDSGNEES

What was measured:
HA-Ash-Parkin (C431A) [1] = biological target: HA-Ash-Parkin (C431A) (UniProt O60260); assay: Fluoppi (fluorescent foci of hAG-tagged and Ash-tagged partners in cells); HeLa cells (no endogenous Parkin) coexpressing hAG-E2 and HA-Ash-Parkin (C431A), 10 μM valinomycin for 3 h, fixed and immunostained; foci on damaged mitochondria, colocalization of hAG with TOMM20 quantified
HA-Ash-Parkin (C431A) [2] = biological target: HA-Ash-Parkin (C431A) (UniProt O60260); assay: condition: only basal conditions (DMSO, without valinomycin); Fluoppi (fluorescent foci of hAG-tagged and Ash-tagged partners in cells); HeLa cells coexpressing hAG-E2 and HA-Ash-Parkin (C431A), basal conditions (DMSO for 3 h, no valinomycin), fixed and immunostained

Row | Substance | binding (HA-Ash-Parkin (C431A) [1]) | binding (HA-Ash-Parkin (C431A) [2])
1 | hAG-UBE2C (from UniProt O00762 1-179) (enzyme) | binds | no binding
2 | hAG-UBE2R2 (from UniProt Q712K3 1-238) (enzyme) | binds | no binding
